This experiment relates to L1210 leukemia ip in BDF1 mice, survival T/C. As to the kind of experiment: NCI In Vivo Anticancer Drug Screen. Data for tumor model L1210 Leukemia (intraperitoneal) in B6D2F1 (BDF1) mice. Conditions: higher T/C = longer survival.

The list shows only some results of the screen, not a fair sample: it gathers tests that were run many times, whatever their T/C, doses with no T/C, and many T/C values between a quarter and a half above the control. Further doses and runs are listed elsewhere. T/C is the treated group as % of the vehicle group. Some entries give survivors of the animals treated and no T/C: the source holds a T/C of zero for them, seemingly a mark for toxic or unscored doses. Some survivor counts are full or nearly so, which does not show that the dose was tolerated: survival well below the control is almost never listed, so the zero probably covers shortened survival too. Survivors were counted at the toxicity check, usually on the fifth day, unless a day is given; later deaths do not show. Schedules are NCI's codes, read here as Q, the interval in days (D) or hours (H), X, the number of doses. Some schedules carry Z or #; the key to these is not given. Some molecules as drawn cover several salts, stereoisomers or complexes of the source; a dose is that of the sample tested. Some doses were run more than once; their values stand side by side, smallest first. Where survival is the endpoint, the PubChem record calls one and a half times the control and up active, and a quarter to a half above the control has no call in these data; cut-offs in other NCI protocols can differ. Some T/C values are followed by the survivors on the day toxicity was checked, most often the fifth; without a count, all were alive then.

With `CCCCCC[n+]1ccc(C#N)cc1`, the survivor count (T/C endpoint: mean survival time, dose: 150.0 mg/kg/injection, schedule: Q01DX001 (ip), vehicle: saline) was 0 of 6 and the survivor count (T/C endpoint: mean survival time, dose: 300.0 mg/kg/injection, schedule: Q01DX001 (ip), vehicle: saline) is reported as 0 of 6.
In the case of `COc1ccc2[nH]c3c(C)c4ccncc4c(C)c3c2c1`, the T/C (T/C endpoint: mean survival time, dose: 6.25 mg/kg/injection, schedule: Q01DX009 (ip), vehicle: citric acid) is 146 % of control; the T/C (T/C endpoint: mean survival time, dose: 6.25 mg/kg/injection, schedule: Q01DX009 (ip), vehicle: clinical formulation) is 142 % of control; the T/C (T/C endpoint: mean survival time, dose: 12.0 mg/kg/injection, schedule: Q01DX Z (ip), vehicle: saline) is 129 % of control; the T/C (T/C endpoint: mean survival time, dose: 12.5 mg/kg/injection, schedule: Q01DX009 (ip), vehicle: clinical formulation) is 146 % of control; the T/C (T/C endpoint: mean survival time, dose: 18.75 mg/kg/injection, schedule: Q04DX003 (ip), vehicle: clinical formulation) is 134 % of control; the T/C (T/C endpoint: mean survival time, dose: 18.75 mg/kg/injection, schedule: Q04DX003 (ip), vehicle: lactic acid) is 129 % of control. The T/C is, setting by setting: (T/C endpoint: mean survival time, dose: 25.0 mg/kg/injection, schedule: Q01DX009 (ip), vehicle: clinical formulation) 146 % of control; (T/C endpoint: mean survival time, dose: 25.0 mg/kg/injection, schedule: Q01DX Z (ip), vehicle: saline) 117, 132, 155, 160 % of control; (T/C endpoint: mean survival time, dose: 25.0 mg/kg/injection, schedule: Q01DX Z (oral), vehicle: saline) 127 % of control; (T/C endpoint: mean survival time, dose: 25.0 mg/kg/injection, schedule: Q04DX003 (ip), vehicle: citric acid) 134 and 142 % of control; (T/C endpoint: mean survival time, dose: 25.0 mg/kg/injection, schedule: Q04DX003 (ip), vehicle: clinical formulation) 143 % of control; (T/C endpoint: mean survival time, dose: 37.5 mg/kg/injection, schedule: Q04DX003 (ip), vehicle: clinical formulation) 144 % of control. In addition, the T/C is 134 % of control (T/C endpoint: mean survival time, dose: 37.5 mg/kg/injection, schedule: Q04DX003 (ip), vehicle: water); 135 % of control (T/C endpoint: mean survival time, dose: 40.0 mg/kg/injection, schedule: Q01DX009 (ip), vehicle: Klucel (hydroxypropylcellulose) (HPC)); 129, 138, 170, 192 % of control (T/C endpoint: mean survival time, dose: 50.0 mg/kg/injection, schedule: Q01DX Z (ip), vehicle: saline); 133 % of control (T/C endpoint: mean survival time, dose: 50.0 mg/kg/injection, schedule: Q01DX Z (oral), vehicle: saline); 135 and 139 % of control [9 of 10 alive] (T/C endpoint: mean survival time, dose: 75.0 mg/kg/injection, schedule: Q01DX001 (ip), vehicle: other); 130 % of control (T/C endpoint: mean survival time, dose: 75.0 mg/kg/injection, schedule: Q01DX001 (oral), vehicle: other). The T/C runs as follows: (T/C endpoint: mean survival time, dose: 75.0 mg/kg/injection, schedule: Q01DX Z (ip), vehicle: carboxymethylcellulose (CMC)) 132 % of control; (T/C endpoint: mean survival time, dose: 75.0 mg/kg/injection, schedule: Q01DX Z (ip), vehicle: saline) 101, 135, 140, 166 % of control; (T/C endpoint: mean survival time, dose: 75.0 mg/kg/injection, schedule: Q01DX Z (oral), vehicle: saline) 131 and 131 % of control [4 of 6 alive]; (T/C endpoint: mean survival time, dose: 75.0 mg/kg/injection, schedule: Q04DX003 (oral), vehicle: other) 147 % of control; (T/C endpoint: mean survival time, dose: 150.0 mg/kg/injection, schedule: Q01DX001 (oral), vehicle: other) 134 and 148 % of control; (T/C endpoint: mean survival time, dose: 150.0 mg/kg/injection, schedule: Q01DX001 (oral), vehicle: saline) 128 % of control. Further, the T/C reads like this: (T/C endpoint: mean survival time, dose: 225.0 mg/kg/injection, schedule: Q01DX001 (ip), vehicle: saline) 131 % of control; (T/C endpoint: mean survival time, dose: 300.0 mg/kg/injection, schedule: Q01DX001 (oral), vehicle: saline) 138 % of control; (T/C endpoint: mean survival time, dose: 340.0 mg/kg/injection, schedule: Q01DX001 (ip), vehicle: saline) 143 % of control; (T/C endpoint: mean survival time, dose: 600.0 mg/kg/injection, schedule: Q01DX001 (oral), vehicle: saline) 139 % of control; (T/C endpoint: median survival time, dose: 4.0 mg/kg/injection, schedule: Q01DX009 (ip), vehicle: water) 133 % of control; (T/C endpoint: median survival time, dose: 8.0 mg/kg/injection, schedule: Q01DX009 (ip), vehicle: other) 133 % of control. Besides, the T/C was 138 % of control (T/C endpoint: median survival time, dose: 8.0 mg/kg/injection, schedule: Q01DX009 (ip), vehicle: water); 133 % of control (T/C endpoint: median survival time, dose: 16.0 mg/kg/injection, schedule: Q01DX009 (sc), vehicle: water); 138 % of control (T/C endpoint: median survival time, dose: 16.0 mg/kg/injection, schedule: Q03HX008 (sc), vehicle: water); 133 % of control (T/C endpoint: median survival time, dose: 32.0 mg/kg/injection, schedule: Q01DX001 (sc), vehicle: water); 127 % of control [9 of 10 alive] (T/C endpoint: median survival time, dose: 128.0 mg/kg/injection, schedule: Q01DX001 (sc), vehicle: water); 127 % of control [8 of 10 alive] (T/C endpoint: median survival time, dose: 256.0 mg/kg/injection, schedule: Q01DX001 (oral), vehicle: other). The survivor count by setting is: (T/C endpoint: mean survival time, dose: 50.0 mg/kg/injection, schedule: Q01DX009 (ip), vehicle: citric acid) 10 of 10; (T/C endpoint: mean survival time, dose: 50.0 mg/kg/injection, schedule: Q01DX009 (ip), vehicle: clinical formulation) 10 of 10; (T/C endpoint: mean survival time, dose: 80.0 mg/kg/injection, schedule: Q01DX009 (ip), vehicle: Klucel (hydroxypropylcellulose) (HPC)) 5 of 6; (T/C endpoint: mean survival time, dose: 100.0 mg/kg/injection, schedule: Q01DX009 (ip), vehicle: citric acid) 2 of 10; (T/C endpoint: mean survival time, dose: 100.0 mg/kg/injection, schedule: Q01DX009 (ip), vehicle: clinical formulation) 3 of 10; (T/C endpoint: mean survival time, dose: 100.0 mg/kg/injection, schedule: Q04DX003 (ip), vehicle: citric acid) 9 of 10. For the same compound, the survivor count is, setting by setting: (T/C endpoint: mean survival time, dose: 150.0 mg/kg/injection, schedule: Q01DX001 (ip), vehicle: other) 3 of 10 and 4 of 10; (T/C endpoint: mean survival time, dose: 150.0 mg/kg/injection, schedule: Q01DX Z (ip), vehicle: carboxymethylcellulose (CMC)) 6 of 6; (T/C endpoint: mean survival time, dose: 150.0 mg/kg/injection, schedule: Q04DX003 (ip), vehicle: clinical formulation) 8 of 10; (T/C endpoint: mean survival time, dose: 150.0 mg/kg/injection, schedule: Q04DX003 (ip), vehicle: lactic acid) 8 of 10; (T/C endpoint: mean survival time, dose: 170.0 mg/kg/injection, schedule: Q01DX Z (oral), vehicle: saline) 6 of 6; (T/C endpoint: mean survival time, dose: 200.0 mg/kg/injection, schedule: Q01DX009 (ip), vehicle: citric acid) 0 of 10. The survivor count by setting is: (T/C endpoint: mean survival time, dose: 200.0 mg/kg/injection, schedule: Q01DX009 (ip), vehicle: clinical formulation) 0 of 10; (T/C endpoint: mean survival time, dose: 200.0 mg/kg/injection, schedule: Q04DX003 (ip), vehicle: citric acid) 4 of 10; (T/C endpoint: mean survival time, dose: 200.0 mg/kg/injection, schedule: Q04DX003 (ip), vehicle: clinical formulation) 7 of 10; (T/C endpoint: mean survival time, dose: 255.0 mg/kg/injection, schedule: Q01DX Z (ip), vehicle: saline) 6 of 7; (T/C endpoint: mean survival time, dose: 385.0 mg/kg/injection, schedule: Q01DX Z (ip), vehicle: saline) 7 of 7; (T/C endpoint: mean survival time, dose: 575.0 mg/kg/injection, schedule: Q01DX Z (ip), vehicle: saline) 4 of 7. Moreover, the survivor count is given as 2 of 10 (T/C endpoint: median survival time, dose: 32.0 mg/kg/injection, schedule: Q03HX008 (oral), vehicle: other); 9 of 10 (T/C endpoint: median survival time, dose: 64.0 mg/kg/injection, schedule: Q01DX009 (ip), vehicle: other); 9 of 10 (T/C endpoint: median survival time, dose: 64.0 mg/kg/injection, schedule: Q01DX009 (ip), vehicle: water); 9 of 10 (T/C endpoint: median survival time, dose: 64.0 mg/kg/injection, schedule: Q01DX009 (oral), vehicle: other); 7 of 10 (T/C endpoint: median survival time, dose: 64.0 mg/kg/injection, schedule: Q03HX008 (oral), vehicle: other); 7 of 10 (T/C endpoint: median survival time, dose: 64.0 mg/kg/injection, schedule: Q03HX008 (sc), vehicle: water).
With `CCN(CC)c1cccc(N)c1`, the survivor count (T/C endpoint: mean survival time, dose: 200.0 mg/kg/injection, schedule: Q04DX003 (sc), vehicle: olive oil, sesame oil, peanut oil) is recorded as 1 of 6 and the survivor count (T/C endpoint: mean survival time, dose: 400.0 mg/kg/injection, schedule: Q04DX003 (sc), vehicle: olive oil, sesame oil, peanut oil) is 1 of 6.
As for `O=C(CC(c1ccccc1)N1CCN(c2ccccc2)CC1)c1ccc(F)cc1` (stereo not given), for the setting “T/C endpoint: mean survival time, dose: 100.0 mg/kg/injection, schedule: Q01DX009 (ip), vehicle: gum acacia”, the survivor count is on record as 6 of 6.
